Measurements published in publication PMC7286909.
Results are given in words; binding and its absence hold for the method and conditions named. Binding can be weak; no strength is given. Where a sequence is shown, tags or fusion partners need not be part of it.

Biological target: T1, GST-SHQ1-α (full length SHQ1) (human) (UniProt Q6PI26)
T1 sequence: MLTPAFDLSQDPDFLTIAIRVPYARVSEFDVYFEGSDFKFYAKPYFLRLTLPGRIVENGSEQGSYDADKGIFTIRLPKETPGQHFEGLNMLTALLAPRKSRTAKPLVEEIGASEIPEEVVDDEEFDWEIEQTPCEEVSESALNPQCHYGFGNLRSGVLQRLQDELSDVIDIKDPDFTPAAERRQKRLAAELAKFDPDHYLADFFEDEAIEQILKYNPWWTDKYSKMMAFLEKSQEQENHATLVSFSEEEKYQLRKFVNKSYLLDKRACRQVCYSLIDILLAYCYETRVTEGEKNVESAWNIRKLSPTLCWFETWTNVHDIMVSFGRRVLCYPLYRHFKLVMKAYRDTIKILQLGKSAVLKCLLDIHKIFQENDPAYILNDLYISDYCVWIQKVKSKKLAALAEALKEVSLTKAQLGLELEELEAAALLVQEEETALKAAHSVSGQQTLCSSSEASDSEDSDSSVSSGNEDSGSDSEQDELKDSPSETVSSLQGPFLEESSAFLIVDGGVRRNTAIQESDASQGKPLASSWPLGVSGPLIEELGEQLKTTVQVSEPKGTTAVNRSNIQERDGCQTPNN
Assay: pull-down; His-GRP78 incubated with GST or GST-SHQ1 (2 μg purified recombinant proteins) for 2 h at 4 °C in 20 mM Tris-HCl pH 8.0, 200 mM NaCl, 0.1% NP-40, 0.3% β-ME; glutathione-Sepharose beads 1 h; western blot; both purified

binding: binds
Substance: His-GRP78
